PubChem BioAssay AID1259405 | NCATS, 2018

- Assay: 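Mouse-designed siRNAs used to find CHO productivity engineering targets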 (primary screen)
- Cells: Chinese hamster CHO-K1 ovary cells with stable secreted eGFP expression
- Knock-down reagent: single siRNA against mouse genes, 0.8 pmol siRNA per well (2 µl of 400 nM stock)
- Duration: 3 days
- Measurement: 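Per-well intracellular GFP measured by laser scanning cytometry, plus viability from ATP luminescence, each relative to plate median of non-targeting control wells, in %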
- Scale: GFP, % of control: higher = more GFP per well, higher productivity; viability (ATP), % of control: higher = more viable cells (more ATP)
- Rule for the call: 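Called active when intracellular GFP, relative to negative control, is at or above 120%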
Shown is one part, drawn at random, of about 50,000 reagents. About 4,000 of them (8%) were called active. 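Mouse siRNA library applied to hamster cells; one well for each siRNA.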 Reagents against one gene are numbered here. No sequences are given here.

gene knocked down	reagent	GFP, % of control	viability (ATP), % of control	activity call
Oasl1 (2'-5' oligoadenylate synthetase-like 1)	1	94.3	112	inactive
Oasl1 (2'-5' oligoadenylate synthetase-like 1)	2	89.3	93.3	inactive
Msrb1 (methionine sulfoxide reductase B1)	1	81.8	82.5	inactive
Msrb1 (methionine sulfoxide reductase B1)	2	77.7	49.8	inactive
Msrb1 (methionine sulfoxide reductase B1)	3	85.1	83.5	inactive
Ltbp1 (latent transforming growth factor beta binding protein 1)	1	75.3	59.6	inactive
Ltbp1 (latent transforming growth factor beta binding protein 1)	2	114	108	inactive
Ltbp1 (latent transforming growth factor beta binding protein 1)	3	72.5	69.1	inactive
Pigv (phosphatidylinositol glycan anchor biosynthesis, class V)	1	88.7	93.9	inactive
Pigv (phosphatidylinositol glycan anchor biosynthesis, class V)	2	96.5	95.2	inactive
Pigv (phosphatidylinositol glycan anchor biosynthesis, class V)	3	18.9	23.1	inactive
Zwint (ZW10 interactor)	1	73.5	45.3	inactive
Zwint (ZW10 interactor)	2	89.3	71.3	inactive
Zwint (ZW10 interactor)	3	88.2	72.8	inactive
Tgfbrap1	1	217	31.9	active
Tgfbrap1	2	80.3	70.5	inactive
Tgfbrap1	3	104	131	inactive
Map3k20 (mitogen-activated protein kinase kinase kinase 20)	1	88.1	81.6	inactive
Ak1 (adenylate kinase 1)	1	62.2	77.4	inactive
Septin6 (septin 6)	1	39.5	65.7	inactive
Septin6 (septin 6)	2	66.8	80.6	inactive
Clec4d (C-type lectin domain family 4, member d)	1	36.1	36.9	inactive
Clec4d (C-type lectin domain family 4, member d)	2	88.2	78.6	inactive
Clec4d (C-type lectin domain family 4, member d)	3	67.7	77.3	inactive
Maml3 (mastermind like transcriptional coactivator 3)	1	41.7	33.1	inactive
Maml3 (mastermind like transcriptional coactivator 3)	2	121	68.7	active
Maml3 (mastermind like transcriptional coactivator 3)	3	154	114	active
Sh2b1 (SH2B adaptor protein 1)	1	81.4	71.7	inactive
Sh2b1 (SH2B adaptor protein 1)	2	76.6	65.9	inactive
Sh2b1 (SH2B adaptor protein 1)	3	76	97.6	inactive
4933436I01Rik (RIKEN cDNA 4933436I01 gene)	1	30.7	38.4	inactive
4933436I01Rik (RIKEN cDNA 4933436I01 gene)	2	131	117	active
4933436I01Rik (RIKEN cDNA 4933436I01 gene)	3	102	125	inactive
Tst (thiosulfate sulfurtransferase, mitochondrial)	1	99.6	102	inactive
Tst (thiosulfate sulfurtransferase, mitochondrial)	2	50.3	41.1	inactive
Tst (thiosulfate sulfurtransferase, mitochondrial)	3	91.8	106	inactive
Cxcl10 (C-X-C motif chemokine ligand 10)	1	39	24.8	inactive
Cxcl10 (C-X-C motif chemokine ligand 10)	2	41.5	55.5	inactive
Cxcl10 (C-X-C motif chemokine ligand 10)	3	79.6	72.9	inactive
Gcat	1	34.4	80.7	inactive
Gcat	2	76.5	79.3	inactive
Gcat	3	82.9	103	inactive
Nsg2 (neuron specific gene family member 2)	1	38.1	28.2	inactive
Nsg2 (neuron specific gene family member 2)	2	74.3	78.7	inactive
Nsg2 (neuron specific gene family member 2)	3	61.4	55.8	inactive
Zfp287 (zinc finger protein 287)	1	64.5	102	inactive
Zfp287 (zinc finger protein 287)	2	36.6	40.9	inactive
Zfp287 (zinc finger protein 287)	3	73.3	90	inactive
Cdc25b (cell division cycle 25B)	1	98.5	108	inactive
Cdc25b (cell division cycle 25B)	2	50.2	48.6	inactive
Cdc25b (cell division cycle 25B)	3	79.7	67.7	inactive
Krtap5-1 (keratin associated protein 5-1)	1	73.7	58.2	inactive
Krtap5-1 (keratin associated protein 5-1)	2	114	101	inactive
Krtap5-1 (keratin associated protein 5-1)	3	61	75.4	inactive
Ctsc (cathepsin C)	1	108	125	inactive
Ctsc (cathepsin C)	2	115	71.7	inactive
Ctsc (cathepsin C)	3	63	42.6	inactive

Part of the list above, limited to “GFP, % of control”.
Pigv (phosphatidylinositol glycan anchor biosynthesis, class V) #1 = 88.7
Pigv (phosphatidylinositol glycan anchor biosynthesis, class V) #2 = 96.5
Pigv (phosphatidylinositol glycan anchor biosynthesis, class V) #3 = 18.9
